In article PMC6211622:
Results are given in words; binding and its absence hold for the method and conditions named. Binding seen in cells or lysates may run through a third protein. Some results given as binding are weak or reduced against the parent protein; the word gives no strength. Tags and fused reporters may be left off the sequences shown.

B1: BRC-1::HA (protein, UniProt B6VQ60 1-609)
chain: MADVALRITETVARLQKELKCGICCSTYKDPILSTCFHIFCRSCINACFERKRKVQCPICRSVLDKRSCRDTYQITMAVQNYLKLSEAFKKDIENMNTFKSLPPEKMFMESQMPLDITIIPENDGKRCAPDFAIPFLPVRRKRPSRPQPPSAFAEEPAEPVEPPEPATKQPVELQSRVFPLEKLKKDVETSTETYKISREELKNVDIEEYINTLRENSTEIDEIDALFQLMPTMRQFLRNNINQLMEKFHVAPPKKSEKPANRRVSFASSQDLENIKIMTASESLETPPEPIQKLAQKPEVFKSTQNLIDLNLNTAVKKPVVVASDDDEVVEDSEGELQIDEDDLANVTCATSSTTLDADRTPKAIQDDEDRIDDELSQVPKTIVCSRIHNDADEVELLSDFYHKFLSNACRFAEDVNEHTTHLVMMNSEGRSISQKSTAYLYAIARKCVIVGRQWLVDCITTGLLLSEADYTITSCSSTIPVKIPPSIGSEMGWLRSRNDEHGKLFAGRRFMILRKFTMNPYFDYKQLIELVQQCGGEILSCYENLSPEKLYIIFSKHSKAIEESKNIENLYKCDVVTMEWVLDSISEYLILPTQPYKAVDSIGCLQD
B2: BRD-1::HA (protein, UniProt Q21209 1-702)
chain: MFENTKKALETFRTAIECVKCKKPRGDLQYLGSSCKHAYCWECIATFQQKPSGKRSSVARHMCPSCAFPLDTSKITEAHMLKTCFDTLSELNDLLQKVGTTSLTQAEFACTQNIFNKEKTPADAVEKFLETQAHMPDEMGQLGEEDDDLMCKDENRENSNSPELDIFHDYSKEASPTRNSTKRPSTVSVHERKPKRSSILKTSVKNEPAAPVVDLFASQVPQRTHQNDLLTPFIERRSTAPAATGVATYAQAFGSSSNPVKAEIIEEDIFSKAIPLTKRQASMSASAKKQPKLEPEEPEEVPSTSRSRKNSIKSDKIERRSQSPMSFGEKSMSVKSEQRRSSYGTRRGEAVLVNSIRNNRIPQLRSAVEAGTCVNEKEDGKTPLYVAVENSSLEAVKILVEAGAVINASCGSTLETTLHEAVRRQNTQIVEYLLSKGASIKIRNIAGKTVEEMAKSDPKIRKIIEKFKTEQRVLQPVVAPPKSRLHFVQLIDEKMLTESEKRKLPGKINIVPADMDSPTHVVVTVDLKTRVLNINKEHIGEILKAIIKSGMIVSRDWLRACIIDPSKVDDDRSYMVQKVRWMEGEVFENTIEQWKKTITKMQPKLFAGCKFFIPKPKYNFLDRPALFEIIRSAGGQAAAREPIIDEKDPPPYHNANLKPNFVLYSLTHDIGDKFRDCTKYNLVSEQWLIEAILGCSITTPPH
B3: MSH-5::2xHA (protein, UniProt Q19272 1-1369)
chain: MSTRWRYYNSKRGNGFRGRGRGRGRGTSLTAVALPRDDNFHKGAQDGAYFKDMPMDPEQFRDETVLSLSFAQGMLGAAYYEQSSQLLKIMNDISEDLEFRFLKRLIDDVKPTLIIANRSQDLEFIKFLTTRYDPQEKIYEDGTTEEGTSEDTVPTWDSSLAYSTDETTAEKEEKEEDEDDDDEGLPAKLNKLPNNFFRMSRAIERLKAMAGSHDSSMTEEDKYIIIKMRFDIEAVNMIRSFGALLLFLDETRMGVTDDPLSVTSPIKSIKTFTLGNLVEIDFNTIQALDILPKETENKKTFGQGRSLYQLMDKCRSTVGKKCLRKWFRNPTTDRDDLVSRQKCVHYFKQDWNAEVTAKLSSILGRVKALNSVFQKFQSGTAQLIHWECFVSTVNALVEILNIIRQTPISKEFPVESDLLREVSEIAVIAGSIINFAESKIQGRVTVMNGIDEELDEIRDTYENMPMVLTAIAKQEEARLGLPPYSNVACVYIPLVGFVLSVPRDYGVESQPDMTLLYSTHEDLRVRNATTSRLDDEFGDILMRLIDSQTAIILTLKTRVMKKKRSIIKLLSIASRIDVLISFGLIAAQNGWNCPALVDEPVIEAVELYHPISVLVVKKSFVPNQVSSGRDGIKASIITGPNACGKSVYMKSIGIMVFLSHIGSFVPARHAKIGIVDRIVTRMFTVDSVLDGMSTFAKDVEQVALALRKATGNSLVIIDEFGKGTMTEVGLSLLASVMTYWMNRGADRCPHIFLSSHFHALPNYIPLETNIATFLTFTVLREAGGKIKYLFRMTPGLVDCSFALSVAKEEGIPPPVIGRACRIYKALKAGTLLKEIKAEVSNDNEKQLVEDMDVVLADEDGFMAAVESFVKRKKTSFCESSMRNVSEEIEKERSEASTPASKSRSTITARSNSVLSSRSMASVDQLSVLDALLPKKKKKKVTGSSMESSMSPDPFQEEDEGTEGEEDQISAPVSRPTLPSVQKYASEEEKQQSINSRHSFSTRTAIHIPTPIQMGEAGGVKRPRSTSTSSPGPSASKSVRTEVFKKTPNVKESQVLETPKQLSISSFLEPKFPSSEKDVISRVSERYLQSDPFKTPISDRRSQQSSRHSTPKNRSMNQSLIQSARDTPHETIRSSNEVNPEFFNIFNFPDDSILKSQDTYDPNVTPRSSSRRELRPDVSHSQNSQFGEVFSELGTQFSIFNSQQSFPGNSMGTTNPDCSIFDDFFANSQDGEKKIDSTKTSMPIVNSDNFIFKTPEPRSSEKQRSLLKNKGQASNSSISPSSLILGQLAFGDVDQTPRPRGDNPIEFQYDVVDDDDPIFEEKNCSAPVFEFLKSNDDEEDDEFLKSFLETEGSLHIDTSADETIDRSKRS

Columns and labels:
Experiment in all cases: co-IP; agarose GFP-traps (Chromotek) on at least 1 mg of pooled soluble nuclear and chromatin-bound fractions of worms; buffer D (20% glycerol, 0.2 mM EDTA pH 8, 150 mM KCl, 20 mM Hepes-KOH pH 7.9, 0.2% Triton X-100), overnight at 4°C; western blot with anti-HA
GFP::SYP-3 (C. elegans) = molecular target: T1, GFP::SYP-3 (C. elegans) (UniProt O62238)
T1 sequence: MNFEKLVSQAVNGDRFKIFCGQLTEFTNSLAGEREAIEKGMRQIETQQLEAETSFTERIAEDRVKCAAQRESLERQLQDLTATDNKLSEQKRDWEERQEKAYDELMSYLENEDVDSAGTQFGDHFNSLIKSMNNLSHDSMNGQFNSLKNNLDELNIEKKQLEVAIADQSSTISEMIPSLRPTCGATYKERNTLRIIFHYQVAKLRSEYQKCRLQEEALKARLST

GFP::MSH-5 (C. elegans) = molecular target: T2, GFP::MSH-5 (C. elegans) (UniProt Q19272)
T2 sequence: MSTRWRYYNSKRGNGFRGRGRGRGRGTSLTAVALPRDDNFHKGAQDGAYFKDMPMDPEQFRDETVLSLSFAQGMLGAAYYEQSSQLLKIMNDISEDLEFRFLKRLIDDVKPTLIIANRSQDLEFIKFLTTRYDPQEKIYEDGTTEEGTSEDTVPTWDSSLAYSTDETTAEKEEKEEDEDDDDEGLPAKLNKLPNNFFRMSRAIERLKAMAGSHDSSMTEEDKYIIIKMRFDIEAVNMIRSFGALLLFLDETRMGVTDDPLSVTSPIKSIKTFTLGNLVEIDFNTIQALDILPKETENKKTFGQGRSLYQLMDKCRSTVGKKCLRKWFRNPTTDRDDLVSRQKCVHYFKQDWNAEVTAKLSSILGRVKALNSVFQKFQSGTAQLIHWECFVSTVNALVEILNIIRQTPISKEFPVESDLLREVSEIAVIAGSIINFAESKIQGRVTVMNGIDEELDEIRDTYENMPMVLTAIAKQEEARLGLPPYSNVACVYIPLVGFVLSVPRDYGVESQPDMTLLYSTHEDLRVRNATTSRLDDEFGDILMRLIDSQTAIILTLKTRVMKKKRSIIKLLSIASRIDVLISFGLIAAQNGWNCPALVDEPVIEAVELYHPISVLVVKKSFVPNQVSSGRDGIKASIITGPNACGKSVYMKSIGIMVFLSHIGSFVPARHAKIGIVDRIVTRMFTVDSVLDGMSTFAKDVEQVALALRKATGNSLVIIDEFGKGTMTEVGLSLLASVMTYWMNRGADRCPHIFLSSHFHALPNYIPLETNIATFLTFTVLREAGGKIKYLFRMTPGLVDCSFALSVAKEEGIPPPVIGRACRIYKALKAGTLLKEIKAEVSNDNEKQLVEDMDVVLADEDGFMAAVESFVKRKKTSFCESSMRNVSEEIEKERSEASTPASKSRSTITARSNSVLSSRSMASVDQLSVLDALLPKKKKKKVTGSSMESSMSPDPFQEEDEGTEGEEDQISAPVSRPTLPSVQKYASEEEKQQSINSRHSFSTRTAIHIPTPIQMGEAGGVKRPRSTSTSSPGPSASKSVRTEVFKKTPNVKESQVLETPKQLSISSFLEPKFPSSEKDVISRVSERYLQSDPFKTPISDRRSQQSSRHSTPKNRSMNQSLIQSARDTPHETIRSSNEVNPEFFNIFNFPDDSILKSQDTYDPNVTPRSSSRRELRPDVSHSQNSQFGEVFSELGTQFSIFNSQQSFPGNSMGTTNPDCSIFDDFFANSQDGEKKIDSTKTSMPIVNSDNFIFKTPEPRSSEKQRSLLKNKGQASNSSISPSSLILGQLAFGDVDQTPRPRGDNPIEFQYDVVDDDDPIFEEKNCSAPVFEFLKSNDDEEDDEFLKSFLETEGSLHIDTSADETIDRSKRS

GFP::BRC-1 (C. elegans) = molecular target: T3, GFP::BRC-1 (C. elegans) (UniProt B6VQ60)
T3 sequence: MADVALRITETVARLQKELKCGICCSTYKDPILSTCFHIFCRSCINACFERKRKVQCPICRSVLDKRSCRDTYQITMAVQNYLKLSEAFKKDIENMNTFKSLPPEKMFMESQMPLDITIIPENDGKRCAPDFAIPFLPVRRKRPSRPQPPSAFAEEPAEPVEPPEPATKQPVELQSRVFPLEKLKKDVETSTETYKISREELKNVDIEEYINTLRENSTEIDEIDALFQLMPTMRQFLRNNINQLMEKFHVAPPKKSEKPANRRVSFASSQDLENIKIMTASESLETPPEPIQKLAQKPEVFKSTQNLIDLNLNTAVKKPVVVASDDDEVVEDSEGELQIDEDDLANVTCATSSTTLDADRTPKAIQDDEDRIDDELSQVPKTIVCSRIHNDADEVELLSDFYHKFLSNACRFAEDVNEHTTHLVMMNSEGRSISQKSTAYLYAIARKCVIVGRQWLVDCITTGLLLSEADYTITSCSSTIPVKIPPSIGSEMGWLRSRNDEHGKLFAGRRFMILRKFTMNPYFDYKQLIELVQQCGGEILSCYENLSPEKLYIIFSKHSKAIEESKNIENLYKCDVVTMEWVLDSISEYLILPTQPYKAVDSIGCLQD

Binder | binding (GFP::SYP-3 (C. elegans)) | binding (GFP::MSH-5 (C. elegans)) | binding (GFP::BRC-1 (C. elegans))
B1 | binds | binds | 
B2 | binds | binds | 
B3 |  |  | binds
